The results in this text go back to PubChem BioAssay AID493014 (National Center for Advancing Translational Sciences (NCATS), 2011).

Some of the results follow. Further columns of the screen follow, without active or inactive calls. Most of these compounds were active or inconclusive in the main read-out, so they are no random draw. The note in brackets gives the kind of curve behind each potency; many fits are weak.

This assay in a line: qHTS Assay to Find Inhibitors of Chronic Active B-Cell Receptor Signaling. To be noted: ABC-DLBCL IkBa-CBG/CBR reporter, luminescence ratio (green luciferase fused to IkBa over red control in TMD8 lymphoma cells), 4 h. The procedure, abridged: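 Cell line TMD8 (human ABC DLBCL), stably expressing tet-inducible CBG68-IkBa fusion and CBR; IMDM/0.5% FBS; cpd up to 46 uM; dox induction, 4 h, 37C/5% CO2; dual luminescence; green/red ratio; MG132 control.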

[1] abbreviates: measured here: CBR red luminescence, cell number.
[2] abbreviates: measured here: IkBa-CBG green luminescence.

`COc1ccc(CNC(=O)C/C(C)=N/NC(=O)c2ccc([N+](=O)[O-])cc2Cl)cc1`: the AC50 (usually the concentration giving half of the maximal activity seen) under setting [1] is 5.01 µM [falling, full curve, poor fit].

In the case of `COc1ccc(S(=O)(=O)N2CCOC23CCN(S(=O)(=O)c2ccc(C)cc2)CC3)cc1`, under setting [1], the AC50 was 1.16 µM [falling, partial curve, poor fit].

`Cc1c(C(=O)OCC(=O)N2CC(=O)Nc3ccccc32)oc2ccccc12`: under setting [1], the AC50 is 9.2 µM [rising, partial curve, poor fit].

Turning to `COc1ccc(CNC(=O)c2cc3c(s2)CS(=O)C3)cc1` (centres undefined), under setting [1], the AC50 was 2.06 µM [rising, full curve, poor fit].

As for `CCCCCCc1cc2cc(C(=O)Nc3ccccc3)c(=O)oc2cc1O`, the AC50 under setting [1] was 18.4 µM [falling, partial curve].

With `CCCn1c(SC(C)C(=O)NCC2CCCO2)nc2cc(Cl)ccc2c1=O` (centres undefined), the AC50 is 13 µM [falling, partial curve, poor fit] under setting [1] and 4.61 µM [rising, full curve, poor fit] under setting [2].

On to `O=C(O)c1ccc(-c2ccc(/C=c3/sc4nc5ccccc5n4c3=O)o2)cc1Cl`, for which the half-maximal activity concentration (AC50) under setting [1] is 22.4 µM [falling, single point].

For the compound `O=C(NNC(=S)Nc1ccc(Cl)c(Cl)c1)c1ccccn1`, the AC50 reads like this: under setting [1], 10 µM [falling, partial curve]; under setting [2], 25.1 µM [falling, single point].

As for `O=C1Nc2ccc(F)cc2C12Nc1ccccc1-c1nnc(SCc3ccccc3)nc1O2` (centres undefined), the AC50 under setting [1] is 11.2 µM [falling, partial curve].

For `O=C1NN(c2ccccc2)C(=O)/C1=C/c1ccc(Sc2cccc3ccccc23)o1`, under setting [1], the AC50 was 0.0731 µM [rising, full curve, poor fit].

`COCn1c(COc2ccccc2)nc2ccccc21`: under setting [1], the AC50 was 13 µM [rising, partial curve, poor fit].

`Cc1ccc(C(=O)NNC(=O)c2ccncc2)cc1[N+](=O)[O-]`: under setting [1], the AC50 is 20.6 µM [falling, partial curve].

As to `Cc1csc2nc(CNC(=O)C3CCCCC3)cn12`, under setting [1], the AC50 is 11.6 µM [rising, partial curve, poor fit].

`COc1ccc(OCCOC(=O)Nc2ccccc2)cc1`: under setting [1], the AC50 is 2.51 µM [rising, partial curve].

As to `O=[N+]([O-])c1cc(S(=O)(=O)N2CCCC2)ccc1OCc1ccccc1`, the AC50 under setting [1] is 2 µM [falling, partial curve, poor fit].

Take `CCn1c(NCc2ccc3c(c2)OCO3)nc2ccccc21`: the AC50 under setting [1] was 0.562 µM [rising, partial curve, poor fit].

Turning to `O=C(NN=C1CCCC1)c1cccc(O)c1`, under setting [1], the concentration at half-maximal activity (AC50) is 6.31 µM [falling, partial curve].

With `O=C(O)c1nn(CCOc2ccc(Cl)cc2Cl)c(=O)c2ccccc12`, the AC50 under setting [1] is 1.12 µM [rising, partial curve].

On to `O=C1N/C(=C/c2ccc(N3CCOCC3)o2)C(=O)N1c1ccccc1`, for which the AC50 reads like this: under setting [1], 29.1 µM [falling, single point]; under setting [2], 3.66 µM [falling, partial curve, poor fit].

Turning to `CCOc1ccc(-n2c(C)nc3cc(C(=O)NCc4ccc5c(c4)OCO5)ccc32)cc1`, the AC50 under setting [1] is 6.51 µM [rising, single point].

`CCc1cccc(CC)c1NC(=O)CN1C2CCCC1CC(NC(=O)Nc1cccc(OC)c1)C2` (centres undefined): the AC50 under setting [1] is 3.98 µM [rising, single point].

For the compound `O=C(COC(=O)c1cc([N+](=O)[O-])ccc1N1CCOCC1)c1ccccc1`, under setting [1], the AC50 is 23.1 µM [falling, partial curve, poor fit].

With `O=C(/C=C/c1ccc(Cl)cc1)NC(=S)Nc1ccc(C(=O)O)cc1`, the AC50 under setting [1] was 3.55 µM [falling, full curve].

With `O=C(Nc1ccccc1Cl)c1ccc2c(=O)n3c(nc2c1)CCC3`, the AC50 under setting [1] was 23.1 µM [falling, single point].

In the case of `Cn1cnnc1SCC(=O)c1cc2ccccc2oc1=O`, the AC50 under setting [1] is 18.4 µM [falling, single point].

Regarding `CCC(C)c1ccc(NC(=S)Nc2ccc(OC)cc2C)cc1` (centres undefined), the AC50 under setting [1] is 25.9 µM [falling, single point].

As to `CCOC(=O)C[n+]1c(C)sc2ccc(OC)cc21`, the AC50 under setting [1] was 22.4 µM [falling, single point].

As for `NNC(=O)c1cnn(-c2ccccc2)c1-n1cccc1`, the AC50 was 31.6 µM [rising, single point] under setting [1] and 31.6 µM [falling, single point] under setting [2].

Take `O=C(/C=C/c1ccc2c(c1)OCCCO2)c1ccccc1O`: the half-maximal activity concentration (AC50) under setting [1] was 18.4 µM [falling, partial curve].

Turning to `CC(C)n1nnnc1SCC(=O)N1N=C(c2cccs2)CC1c1cccs1` (centres undefined), under setting [1], the AC50 was 18.4 µM [rising, partial curve, poor fit].

Regarding `COC(=O)c1ccccc1SC1CC(=O)N(c2ccccc2)C1=O` (centres undefined), under setting [1], the AC50 is 0.058 µM [falling, full curve, poor fit].

For `O=C1CC(N2CCN(c3ccccn3)CC2)C(=O)N1CC(c1ccccc1)c1ccccc1` (centres undefined), the AC50 under setting [1] was 23.1 µM [falling, single point].

For `O=C(COC(=O)c1cncc(Br)c1)NCCC1=CCCCC1`, the AC50 under setting [1] is 32.6 µM [falling, single point].

On to `COc1ccc(CCNC(=O)c2c(Cl)ccc(Cl)c2OC)cc1OC`, for which the AC50 under setting [1] was 14.1 µM [rising, partial curve, poor fit].

As to `Cc1ccc(C(=O)N(C)CC(=O)Nc2ccc(Cl)c(C(F)(F)F)c2)cc1S(=O)(=O)N1CCCCC1`, the AC50 under setting [1] was 20.6 µM [falling, single point].

As to `NS(=O)(=O)c1ccc(NC(=S)NC2CCCCC2)cc1`, the AC50 under setting [1] was 22.4 µM [falling, single point].

For `O=C(CCc1c[nH]c2ccccc12)NCCc1ccc(O)cc1`, under setting [1], the half-maximal activity concentration (AC50) was 15.8 µM [rising, partial curve, poor fit].

As to `CCSC(C)CC1C/C(=N/O)c2c(CC)noc2C1` (centres undefined), the AC50 under setting [1] is 0.259 µM [rising, full curve, poor fit].

For the compound `COc1ccccc1-c1cc(-c2ccc(O)cc2)nc(N)c1C#N`, under setting [1], the AC50 was 3.98 µM [falling, full curve, poor fit].

With `COc1cc(/C=N/O)ccc1OCc1ccc(C(=O)O)cc1`, under setting [1], the AC50 was 0.461 µM [falling, full curve].
